# Results from patent US8173771B2, “Humanin receptor or humanin-like polypeptide receptor” (Keio Univeristy, priority 2005, dated 2012).
# Not every detail of the peptide structures is certain; ends, links or a residue may be inferred.
# Tested on: F11 cells
# Assay: Neuronal cell death of F11 cells induced by overexpression of FAD genes (V642I-APP, M146L-PS1), WST-8 / Trypan blue
# Assay type: cell-based
# Procedure: D) F11 cells were transfected with 0.5 μg of the pcDNA3 vector or pcDNA3-V642I-APP in association with 0.5 μg of the pEFBos vector or pEFBos-wild-type human gp130 (gp130wt). At 24 hr after transfection, the cells were added with 1 μg of neutralizing anti-mouse gp130 antibody. Cell mortality (left panel) and cell viability (right panel) were determined by Trypan blue exclusion assay and WST-8 assay at 72 hr after transfection. Below are shown the results of the expression of V642I-APP, and human gp130wt, which were confirmed by immunoblot analysis (photos).
# (§1) B) F11 cells were transfected with 0.5 μg of the pcDNA3 vector or pcDNA3-V642I-APP in association with pRNA-U6.1/Shuttle vector (NO), pRNA-U6.1/Shuttle-siWSX-1 (W), pRNA-U6.1/Shuttle-siCNTF-R (C), or pRNA-U6.1/Shuttle-siFPR-2 (F) (Hashimoto et al. 2005). At 24 hrs after transfection, the cells were added with or without 10 nM of HNG. At 72 hrs after transfection, the cells were harvested for WST-8 assays.
# as §1, with “C)” for “B)”, “(Vec),” for “(NO),”, “(W), or” for “(W),”, “(C) together with 1 μg of the pEFBos vector, pEF-mycHis-human WSX-1,” for “(C),”, “pEF-V5-human CNTF-R.” for “pRNA-U6.1/Shuttle-siFPR-2 (F) (Hashimoto et al. 2005).”
# F11 cells were transfected with pcDNA3 vector or pcDNA3-V642I-APP. […] At 72 hrs after administration, WST-8 assay was carried out. The expression of V642I-APP was checked as well with respect to the cells allotted with numbers. The expression of V642I-APP determined by immunoblot analysis was shown below in a photo.
# D) F11 cells seeded on 6-well plate (7×10^4 cells/well) were transfected with 0.5 μg of pcDNA3 vector, pcDNA3-V642I-APP or pcDNA3-M146L-PS1 in association with 1.0 μg of pRNA-U6.1/Shuttle vector, pRNA-U6.1/Shuttle-Bax siRNA or pRNA-U6.1/Shuttle-WSX-1 siRNA. At 24 hrs after the transfection, the cells were added with 10 μM of HN, and subjected to WST-8 assay 72 hrs later. The expression of APP and PS1 was confirmed by immunoblot analysis with respect to parts of the cell lysate.
# The transfection procedures were as described (Hashimoto et al, 2000, 2001a, 2003). F11 cells, seeded at 7×10^4/well in 6-well dishes, were transfected with indicated vectors. Transfection efficiency in these protocols has been determined to be invariably around 70%. At 72 hrs after transfection, the Trypan blue exclusion assay and LDH assay were performed as a cell-death assay and the WST-8 assay was performed as cell-viability assays (Hashimoto et al, 2000, 2001a b, 2003). HN was added to the culture medium usually at 5 hrs after transfection, but in some cases at 24 hrs after transfection.
smiles,measurement,setting,value
"CC[C@H](C)[C@H](NC(=O)[C@H](CCC(=O)O)NC(=O)[C@H](CO)NC(=O)[C@@H](NC(=O)[C@H](CC(C)C)NC(=O)[C@H](CC(C)C)NC(=O)[C@H](CC(C)C)NC(=O)[C@H](CC(C)C)NC(=O)[C@H](CS)NC(=O)[C@H](CO)NC(=O)[C@H](Cc1ccccc1)NC(=O)CNC(=O)[C@H](CCCNC(=N)N)NC(=O)[C@@H]1CCCN1C(=O)[C@H](C)NC(=O)[C@@H](N)CCSC)[C@@H](C)O)C(=O)N[C@@H](CC(=O)O)C(=O)N[C@@H](CC(C)C)C(=O)N1CCC[C@H]1C(=O)N[C@H](C(=O)N[C@@H](CCCCN)C(=O)N[C@@H](CCCNC(=N)N)C(=O)N[C@@H](CCCNC(=N)N)C(=O)N[C@@H](C)C(=O)O)C(C)C [HN, Humanin]",HN activity inhibited by siRNA for mouse CNTF receptor or mouse WSX-1,coexpression of human CNTF receptor or human WSX-1,completely recovered
same,HN activity against neurotoxicity by overexpression of V642I-APP,disruption of FPR-2 by siRNA,did not reduce
same,HN activity against neurotoxicity by overexpression of V642I-APP,"disruption of endogenous WSX-1 by siRNA, 10 nM HNG in FIG. 5B",almost completely suppressed
same,reduction of HN activity compared with the control,"disruption of the CNTF receptor by siRNA, V642I-APP",30%
same,inhibition effect of HN for neuronal cell death induced by M146L-PS1,"inhibition of expression of endogenous Bax, 10 μM HN",not affected
